# Test results reported in publication PMC5996148.
# This is one part of the list. For some of these results: Construct or isoform of the protein are uncertain.
# Assays:
# Experiment in all cases: protein microarray (ProtoArray v5.0), streptavidin-Alexa Fluor 647
# Conditions in all cases: 3'-biotin; 20 mM Tris (pH 7.5), 5 mM MgCl2, 100 mM KCl, 0.1% Tween-20, A/T-rich and random oligonucleotide blockers; temperature not stated; high values mean tight binding
# GTF2I (human) = tested on: GTF2I (human)
# [1] = tested on: GTP-binding nuclear protein Ran (human)
# GTPBP8 (human) = tested on: GTPBP8 (human)
# GYG2 = biological target: T1, GYG2 (UniProt O15488)
# T1 sequence: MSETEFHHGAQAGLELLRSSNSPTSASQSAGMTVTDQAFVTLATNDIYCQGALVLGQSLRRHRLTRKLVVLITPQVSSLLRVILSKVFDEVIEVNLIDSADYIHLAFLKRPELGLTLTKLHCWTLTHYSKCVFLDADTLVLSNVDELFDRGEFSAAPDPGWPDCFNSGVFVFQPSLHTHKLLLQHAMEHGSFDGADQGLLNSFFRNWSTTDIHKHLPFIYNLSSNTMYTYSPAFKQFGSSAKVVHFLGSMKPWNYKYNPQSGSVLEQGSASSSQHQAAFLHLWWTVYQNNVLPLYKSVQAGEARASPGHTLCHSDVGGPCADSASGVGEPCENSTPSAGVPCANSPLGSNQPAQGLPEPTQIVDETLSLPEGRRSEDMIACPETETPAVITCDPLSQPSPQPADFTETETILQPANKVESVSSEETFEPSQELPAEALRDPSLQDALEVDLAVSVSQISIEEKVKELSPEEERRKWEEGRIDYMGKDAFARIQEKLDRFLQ
# GYPC = biological target: T2, GYPC (UniProt P04921)
# T2 sequence: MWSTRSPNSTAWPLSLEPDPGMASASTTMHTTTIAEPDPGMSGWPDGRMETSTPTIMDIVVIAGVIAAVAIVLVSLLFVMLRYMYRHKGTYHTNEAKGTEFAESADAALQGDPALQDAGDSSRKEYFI
# Galectin-3 (human) = tested on: Galectin-3 (human)
# [2] = tested on: Gamma-soluble NSF attachment protein (human)
# [3] = tested on: Ganglioside GM2 activator (human)
# [4] = tested on: Geranylgeranyl pyrophosphate synthetase (human)
# [5] = tested on: Glucose-6-phosphate translocase (human)
sequence,measurement,setting,value
GGGGACAGGGGTATGGGGAGGGG [G4-3 biotinylated (CtG)],binding signal,GTF2I (human),-0.339 z-score
same,binding signal,[1],-0.331 z-score
same,binding signal,GTPBP8 (human),-0.32 z-score
same,binding signal,GYG2,-0.336 z-score
same,binding signal,GYPC,-0.332 z-score
same,binding signal,Galectin-3 (human),-0.339 z-score
same,binding signal,[2],-0.316 z-score
same,binding signal,[3],-0.328 z-score
same,binding signal,[4],-0.331 z-score
same,binding signal,[5],-0.329 z-score

# At a glance, some entries already given:
sequence,measurement,setting,value
GGGGACAGGGGTATGGGGAGGGG [G4-3 biotinylated (CtG)],binding signal,GYG2,-0.336 z-score
same,binding signal,GYPC,-0.332 z-score
